Laboratory results as given in PMC11747512.
These are yes or no findings as the source states them, for the method shown. Binding seen in cells or lysates may run through a third protein. Here binding means that the protein was enriched with, or labelled near, the bait; the list need not be complete.

B1: EEF1E1 (protein, UniProt O43324 1-174)
chain: MAAAAELSLLEKSLGLSKGNKYSAQGERQIPVLQTNNGPSLTGLTTIAAHLVKQANKEYLLGSTAEEKAIVQQWLEYRVTQVDGHSSKNDIHTLLKDLNSYLEDKVYLTGYNFTLADILLYYGLHRFIVDLTVQEKEKYLNVSRWFCHIQHYPGIRQHLSSVVFIKNRLYTNSH
B2: ATF3 (protein, UniProt P18847 1-181)
chain: MMLQHPGQVSASEVSASAIVPCLSPPGSLVFEDFANLTPFVKEELRFAIQNKHLCHRMSSALESVTVSDRPLGVSITKAEVAPEEDERKKRRRERNKIAAAKCRNKKKEKTECLQKESEKLESVNAELKAQIEELKNEKQHLIYMLNLHRPTCIVRAQNGRTPEDERNLFIQQIKEGTLQS
B3: formin-binding protein 4 (protein, UniProt Q8N3X1 1-1017)
chain: MGKKSRAVPGRRPILQLSPPGPRGSTPGRDPEPEPDTEPDSTAAVPSQPAPSAATTTTTAVTAAAASDDSPSEDEQEAVQEVPRVVQNPPKPVMTTRPTAVKATGGLCLLGAYADSDDDDNDVSEKLAQSKETNGNQSTDIDSTLANFLAEIDAITAPQPAAPVGASAPPPTPPRPEPKEAATSTLSSSTSNGTDSTQTSGWQYDTQCSLAGVGIEMGDWQEVWDENTGCYYYWNTQTNEVTWELPQYLATQVQGLQHYQPSSVPGAETSFVVNTDIYSKEKTISVSSSKSGPVIAKREVKKEVNEGIQALSNSEEEKKGVAASLLAPLLPEGIKEEEERWRRKVICKEEPVSEVKETSTTVEEATTIVKPQEIMLDNIEDPSQEDLCSVVQSGESEEEEEQDTLELELVLERKKAELRALEEGDGSVSGSSPRSDISQPASQDGMRRLMSKRGKWKMFVRATSPESTSRSSSKTGRDTPENGETAIGAENSEKIDENSDKEMEVEESPEKIKVQTTPKVEEEQDLKFQIGELANTLTSKFEFLGINRQSISNFHVLLLQTETRIADWREGALNGNYLKRKLQDAAEQLKQYEINATPKGWSCHWDRDHRRYFYVNEQSGESQWEFPDGEEEEEESQAQENRDETLAKQTLKDKTGTDSNSTESSETSTGSLCKESFSGQVSSSSLMPLTPFWTLLQSNVPVLQPPLPLEMPPPPPPPPESPPPPPPPPPPAEDGEIQEVEMEDEGSEEPPAPGTEEDTPLKPSAQTTVVTSQSSVDSTISSSSSTKGIKRKATEISTAVVQRSATIGSSPVLYSQSAIATGHQAAGIGNQATGIGHQTIPVSLPAAGMGHQARGMSLQSNYLGLAAAPAIMSYAECSVPIGVTAPSLQPVQARGAVPTATIIEPPPPPPPPPPPPPPAPKMPPPEKTKKGRKDKAKKSKTKMPSLVKKWQSIQRELDEEDNSSSSEEDRESTAQKRIEEWKQQQLVSGMAERNANFEALPEDWRARLKRRKMAPNT
B4: RRP8 (protein, UniProt O43159 1-456)
chain: MFEEPEWAEAAPVAAGLGPVISRPPPAASSQNKGSKRRQLLATLRALEAASLSQHPPSLCISDSEEEEEERKKKCPKKASFASASAEVGKKGKKKCQKQGPPCSDSEEEVERKKKCHKQALVGSDSAEDEKRKRKCQKHAPINSAQHLDNVDQTGPKAWKGSTTNDPPKQSPGSTSPKPPHTLSRKQWRNRQKNKRRCKNKFQPPQVPDQAPAEAPTEKTEVSPVPRTDSHEARAGALRARMAQRLDGARFRYLNEQLYSGPSSAAQRLFQEDPEAFLLYHRGFQSQVKKWPLQPVDRIARDLRQRPASLVVADFGCGDCRLASSIRNPVHCFDLASLDPRVTVCDMAQVPLEDESVDVAVFCLSLMGTNIRDFLEEANRVLKPGGLLKVAEVSSRFEDVRTFLRAVTKLGFKIVSKDLTNSHFFLFDFQKTGPPLVGPKAQLSGLQLQPCLYKRR
B5: GTSE1 (protein, UniProt Q9NYZ3 1-739)
chain: MEGGGGRDEPSACRAGDVNMDDPKKEDILLLADEKFDFDLSLSSSSANEDDEVFFGPFGHKERCIAASLELNNPVPEQPPLPTSESPFAWSPLAGEKFVEVYKEAHLLALHIESSSRNQAAQAAKPEDPRSQGVERFIQESKLKINLFEKEKEMKKSPTSLKRETYYLSDSPLLGPPVGEPRLLASSPALPSSGAQARLTRAPGPPHSAHALPRESCTAHAASQAATQRKPGTKLLLPRAASVRGRSIPGAAEKPKKEIPASPSRTKIPAEKESHRDVLPDKPAPGAVNVPAAGSHLGQGKRAIPVPNKLGLKKTLLKAPGSTSNLARKSSSGPVWSGASSACTSPAVGKAKSSEFASIPANSSRPLSNISKSGRMGPAMLRPALPAGPVGASSWQAKRVDVSELAAEQLTAPPSASPTQPQTPEGGGQWLNSSCAWSESSQLNKTRSIRRRDSCLNSKTKVMPTPTNQFKIPKFSIGDSPDSSTPKLSRAQRPQSCTSVGRVTVHSTPVRRSSGPAPQSLLSAWRVSALPTPASRRCSGLPPMTPKTMPRAVGSPLCVPARRRSSEPRKNSAMRTEPTRESNRKTDSRLVDVSPDRGSPPSRVPQALNFSPEESDSTFSKSTATEVAREEAKPGGDAAPSEALLVDIKLEPLAVTPDAASQPLIDLPLIDFCDTPEAHVAVGSESRPLIDLMTNTPDMNKNVAKPSPVVGQLIDLSSPLIQLSPEADKENVDSPLLKF
B6: ribosome production factor 1 (protein, UniProt Q9H9Y2 1-349)
chain: MAKAGDKSSSSGKKSLKRKAAAEELQEAAGAGDGATENGVQPPKAAAFPPGFSISEIKNKQRRHLMFTRWKQQQRKEKLAAKKKLKKEREALGDKAPPKPVPKTIDNQRVYDETTVDPNDEEVAYDEATDEFASYFNKQTSPKILITTSDRPHGRTVRLCEQLSTVIPNSHVYYRRGLALKKIIPQCIARDFTDLIVINEDRKTPNGLILSHLPNGPTAHFKMSSVRLRKEIKRRGKDPTEHIPEIILNNFTTRLGHSIGRMFASLFPHNPQFIGRQVATFHNQRDYIFFRFHRYIFRSEKKVGIQELGPRFTLKLRSLQKGTFDSKYGEYEWVHKPREMDTSRRKFHL
B7: BBX (protein, UniProt Q8WY36 1-941)
chain: MKGSNRNKDHSAEGEGVGKRPKRKCLQWHPLLAKKLLDFSEEEEEEDEEEDIDKVQLLGADGLEQDVGETEDDESPEQRARRPMNAFLLFCKRHRSLVRQEHPRLDNRGATKILADWWAVLDPKEKQKYTDMAKEYKDAFMKANPGYKWCPTTNKPVKSPTPTVNPRKKLWAFPSDSSRDLPSPKKAKTEEMPQLNFGMADPTQMGGLSMLLLAGEHALGTPEVSSGTCRPDVSESPELRQKSPLFQFAEISSSTSHSDASTKQCQTSALFQFAEISSNTSQLGGAEPVKRCGKSALFQLAEMCLASEGMKMEESKLIKAKESDGGRIKELEKGKEEKEIKMEKTDETRLQKEAEFEKSAKENLRDSKELRNFEALQIDDIMAIKMEDPKEIRKEELEEDHKCSHFPDFSYSASSKIIISDVPSRKDHMCHPHGIMIIEDPAALNKPEKLKKKKKKSKMDRHGNDKSTPKKTCKKRQSSESDIESVIYTIEAVAKGDWGIEKLGDTPRKKVRTSSSGKGSILDAKPPKKKVKSREKKMSKEKSSDTTKESRPPDFISISASKNISGETPEGIKAEPLTPMEDALPPSLSGQAKPEDSDCHRKIETCGSRKSERSCKGALYKTLVSEGMLTSLRANVDRGKRSSGKGNSSDHEGCWNEESWTFSQSGTSGSKKFKKTKPKEDCLLGSAKLDEEFEKKFNSLPQYSPVTFDRKCVPVPRKKKKTGNVSSEPTKTSKGPFQSQKKNLFHKIVSKYKHKKEKPNVPEKGSGDKWSNKQLFLDAIHPTEAIFSEDRNTMEPVHKVKNIPSIFNTPEPTTTQEPLVGSQKRKARKTKITHLVRTADGRVSPAGGTLDDKPKEQLQRSLPKATETDCNDKCSHNTEVGETRSSTPEMPAVSAFFSLAALAEVAAMENVHRGQRSTPLTHDGQPKEMPQAPVLISCADQ
B8: MYBBP1A (protein, UniProt Q9BQG0 1-1328)
chain: MESRDPAQPMSPGEATQSGARPADRYGLLKHSREFLDFFWDIAKPEQETRLAATEKLLEYLRGRPKGSEMKYALKRLITGLGVGRETARPCYSLALAQLLQSFEDLPLCSILQQIQEKYDLHQVKKAMLRPALFANLFGVLALFQSGRLVKDQEALMKSVKLLQALAQYQNHLQEQPRKALVDILSEVSKATLQEILPEVLKADLNIILSSPEQLELFLLAQQKVPSKLKKLVGSVNLFSDENVPRLVNVLKMAASSVKKDRKLPAIALDLLRLALKEDKFPRFWKEVVEQGLLKMQFWPASYLCFRLLGAALPLLTKEQLHLVMQGDVIRHYGEHVCTAKLPKQFKFAPEMDDYVGTFLEGCQDDPERQLAVLVAFSSVTNQGLPVTPTFWRVVRFLSPPALQGYVAWLRAMFLQPDLDSLVDFSTNNQKKAQDSSLHMPERAVFRLRKWIIFRLVSIVDSLHLEMEEALTEQVARFCLFHSFFVTKKPTSQIPETKHPFSFPLENQAREAVSSAFFSLLQTLSTQFKQAPGQTQGGQPWTYHLVQFADLLLNHSHNVTTVTPFTAQQRQAWDRMLQTLKELEAHSAEARAAAFQHLLLLVGIHLLKSPAESCDLLGDIQTCIRKSLGEKPRRSRTKTIDPQEPPWVEVLVEILLALLAQPSHLMRQVARSVFGHICSHLTPRALQLILDVLNPETSEDENDRVVVTDDSDERRLKGAEDKSEEGEDNRSSESEEESEGEESEEEERDGDVDQGFREQLMTVLQAGKALGGEDSENEEELGDEAMMALDQSLASLFAEQKLRIQARRDEKNKLQKEKALRRDFQIRVLDLVEVLVTKQPENALVLELLEPLLSIIRRSLRSSSSKQEQDLLHKTARIFTHHLCRARRYCHDLGERAGALHAQVERLVQQAGRQPDSPTALYHFNASLYLLRVLKGNTAEGCVHETQEKQKAGTDPSHMPTGPQAASCLDLNLVTRVYSTALSSFLTKRNSPLTVPMFLSLFSRHPVLCQSLLPILVQHITGPVRPRHQACLLLQKTLSMREVRSCFEDPEWKQLMGQVLAKVTENLRVLGEAQTKAQHQQALSSLELLNVLFRTCKHEKLTLDLTVLLGVLQGQQQSLQQGAHSTGSSRLHDLYWQAMKTLGVQRPKLEKKDAKEIPSATQSPISKKRKKKGFLPETKKRKKRKSEDGTPAEDGTPAATGGSQPPSMGRKKRNRTKAKVPAQANGTPTTKSPAPGAPTRSPSTPAKSPKLQKKNQKPSQVNGAPGSPTEPAGQKQHQKALPKKGVLGKSPLSALARKKARLSLVIRSPSLLQSGAKKKAQVRKAGKP
B9: NOP2 (protein, UniProt P46087 1-812)
chain: MGRKLDPTKEKRGPGRKARKQKGAETELVRFLPAVSDENSKRLSSRARKRAAKRRLGSVEAPKTNKSPEAKPLPGKLPKGISAGAVQTAGKKGPQSLFNAPRGKKRPAPGSDEEEEEEDSEEDGMVNHGDLWGSEDDADTVDDYGADSNSEDEEEGEALLPIERAARKQKAREAAAGIQWSEEETEDEEEEKEVTPESGPPKVEEADGGLQINVDEEPFVLPPAGEMEQDAQAPDLQRVHKRIQDIVGILRDFGAQREEGRSRSEYLNRLKKDLAIYYSYGDFLLGKLMDLFPLSELVEFLEANEVPRPVTLRTNTLKTRRRDLAQALINRGVNLDPLGKWSKTGLVVYDSSVPIGATPEYLAGHYMLQGASSMLPVMALAPQEHERILDMCCAPGGKTSYMAQLMKNTGVILANDANAERLKSVVGNLHRLGVTNTIISHYDGRQFPKVVGGFDRVLLDAPCSGTGVISKDPAVKTNKDEKDILRCAHLQKELLLSAIDSVNATSKTGGYLVYCTCSITVEENEWVVDYALKKRNVRLVPTGLDFGQEGFTRFRERRFHPSLRSTRRFYPHTHNMDGFFIAKFKKFSNSIPQSQTGNSETATPTNVDLPQVIPKSENSSQPAKKAKGAAKTKQQLQKQQHPKKASFQKLNGISKGADSELSTVPSVTKTQASSSFQDSSQPAGKAEGIREPKVTGKLKQRSPKLQSSKKVAFLRQNAPPKGTDTQTPAVLSPSKTQATLKPKDHHQPLGRAKGVEKQQLPEQPFEKAAFQKQNDTPKGPQPPTVSPIRSSRPPPAKRKKSQSRGNSQLLLS

Molecular target: AFAP-streptavidin-binding peptide-3xFLAG tag fusion protein (Anaplasma phagocytophilum)
Test: affinity purification with mass spectrometry

Binder	binding
B1	binds
B2	binds
B3	binds
B4	binds
B5	binds
B6	binds
B7	binds
B8	binds
B9	binds
